PubChem BioAssay AID1259254 | NCATS, 2017
The deposit covers about 59,000 reagents; below is an unselected part. Of all reagents, about 1,550 (2.6%) were called active. 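G2 share is only a proxy for re-replication; each gene was hit by three separate siRNAs, and active genes were retested.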 The numbers tell different reagents against one gene apart. Not all columns of the deposit are shown. No sequences are given here. The record does not give: the amount of reagent.

- Assay: 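Gene knock-downs that lead to re-replication, shown by excess G2 DNA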 (primary screen)
- Cells: human HCT116 colorectal cancer cells
- Reagents: single siRNA against human genes
- Duration: 3 days
- Measurement: 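Nuclei stained with Hoechst and imaged; cell-cycle phase assigned by DNA content; G2 share scaled per plate, non-targeting siRNA 0%, GMNN siRNA 100%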
- Scale: G2 robust z-score: higher = more G2 cells, more excess DNA replication
- Call rule: 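Active siRNAs have a G2 robust z of 5 or more median absolute deviations over the median, which in these data means about 38% or higher of GMNN control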

ADH7 (alcohol dehydrogenase 7 (class IV), mu or sigma polypeptide) #1: G2 robust z-score = -0.911; activity call = inactive
ADH7 (alcohol dehydrogenase 7 (class IV), mu or sigma polypeptide) #2: G2 robust z-score = -0.0565; activity call = inactive
ADH7 (alcohol dehydrogenase 7 (class IV), mu or sigma polypeptide) #3: G2 robust z-score = -0.857; activity call = inactive
MSTO1 (misato mitochondrial distribution and morphology regulator 1) #1: G2 robust z-score = -0.513; activity call = inactive
MSTO1 (misato mitochondrial distribution and morphology regulator 1) #2: G2 robust z-score = 3.66; activity call = inactive
MSTO1 (misato mitochondrial distribution and morphology regulator 1) #3: G2 robust z-score = 0.153; activity call = inactive
MOB4 (MOB family member 4, phocein) #1: G2 robust z-score = 2.77; activity call = inactive
MOB4 (MOB family member 4, phocein) #2: G2 robust z-score = 3.71; activity call = inactive
MOB4 (MOB family member 4, phocein) #3: G2 robust z-score = 0.726; activity call = inactive

The list goes on; the last 3 above are carried over.
MOB4 (MOB family member 4, phocein) #1: G2 robust z-score = 2.77; activity call = inactive
MOB4 (MOB family member 4, phocein) #2: G2 robust z-score = 3.71; activity call = inactive
MOB4 (MOB family member 4, phocein) #3: G2 robust z-score = 0.726; activity call = inactive
SIL1 (SIL1 nucleotide exchange factor) #1: G2 robust z-score = -0.204; activity call = inactive
SIL1 (SIL1 nucleotide exchange factor) #2: G2 robust z-score = 0.183; activity call = inactive
SIL1 (SIL1 nucleotide exchange factor) #3: G2 robust z-score = 3.44; activity call = inactive
C5orf24 (chromosome 5 open reading frame 24) #1: G2 robust z-score = -0.671; activity call = inactive
C5orf24 (chromosome 5 open reading frame 24) #2: G2 robust z-score = 0.162; activity call = inactive
C5orf24 (chromosome 5 open reading frame 24) #3: G2 robust z-score = -0.111; activity call = inactive
ZNF48 (zinc finger protein 48) #1: G2 robust z-score = 1.1; activity call = inactive
ZNF48 (zinc finger protein 48) #2: G2 robust z-score = -0.589; activity call = inactive
ZNF48 (zinc finger protein 48) #3: G2 robust z-score = -1.2; activity call = inactive
SPACA9 (sperm acrosome associated 9) #1: G2 robust z-score = 0.312; activity call = inactive
SPACA9 (sperm acrosome associated 9) #2: G2 robust z-score = -0.312; activity call = inactive
SPACA9 (sperm acrosome associated 9) #3: G2 robust z-score = 0.322; activity call = inactive
KCNA1 (potassium voltage-gated channel subfamily A member 1) #1: G2 robust z-score = 1.38; activity call = inactive
KCNA1 (potassium voltage-gated channel subfamily A member 1) #2: G2 robust z-score = 1.67; activity call = inactive
KCNA1 (potassium voltage-gated channel subfamily A member 1) #3: G2 robust z-score = -0.631; activity call = inactive
